Reference: publication PMC2868802
Results are given in words; binding and its absence hold for the method and conditions named. A result given as binding can be weak or reduced; the word gives no strength.

The chains behind the UniProt entries cited, without tags or fusion partners. Where a name states a change or a piece, a line headed by the entry shows the natural chain unless it says otherwise. Residues count along the entry.
UniProt Q9NBK5: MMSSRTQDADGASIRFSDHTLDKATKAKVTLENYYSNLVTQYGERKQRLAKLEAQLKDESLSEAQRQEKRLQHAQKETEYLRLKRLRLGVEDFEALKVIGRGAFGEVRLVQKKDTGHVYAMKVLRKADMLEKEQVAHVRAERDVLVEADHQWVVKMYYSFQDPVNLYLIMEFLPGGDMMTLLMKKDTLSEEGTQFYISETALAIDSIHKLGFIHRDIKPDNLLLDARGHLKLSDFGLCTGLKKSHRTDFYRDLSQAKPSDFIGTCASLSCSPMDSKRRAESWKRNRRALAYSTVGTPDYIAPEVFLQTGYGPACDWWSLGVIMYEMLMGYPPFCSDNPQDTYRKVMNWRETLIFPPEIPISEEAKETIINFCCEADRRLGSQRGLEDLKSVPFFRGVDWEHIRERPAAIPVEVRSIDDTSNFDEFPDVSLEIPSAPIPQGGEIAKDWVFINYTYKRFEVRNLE
UniProt Q9VT28, residues 1-1637: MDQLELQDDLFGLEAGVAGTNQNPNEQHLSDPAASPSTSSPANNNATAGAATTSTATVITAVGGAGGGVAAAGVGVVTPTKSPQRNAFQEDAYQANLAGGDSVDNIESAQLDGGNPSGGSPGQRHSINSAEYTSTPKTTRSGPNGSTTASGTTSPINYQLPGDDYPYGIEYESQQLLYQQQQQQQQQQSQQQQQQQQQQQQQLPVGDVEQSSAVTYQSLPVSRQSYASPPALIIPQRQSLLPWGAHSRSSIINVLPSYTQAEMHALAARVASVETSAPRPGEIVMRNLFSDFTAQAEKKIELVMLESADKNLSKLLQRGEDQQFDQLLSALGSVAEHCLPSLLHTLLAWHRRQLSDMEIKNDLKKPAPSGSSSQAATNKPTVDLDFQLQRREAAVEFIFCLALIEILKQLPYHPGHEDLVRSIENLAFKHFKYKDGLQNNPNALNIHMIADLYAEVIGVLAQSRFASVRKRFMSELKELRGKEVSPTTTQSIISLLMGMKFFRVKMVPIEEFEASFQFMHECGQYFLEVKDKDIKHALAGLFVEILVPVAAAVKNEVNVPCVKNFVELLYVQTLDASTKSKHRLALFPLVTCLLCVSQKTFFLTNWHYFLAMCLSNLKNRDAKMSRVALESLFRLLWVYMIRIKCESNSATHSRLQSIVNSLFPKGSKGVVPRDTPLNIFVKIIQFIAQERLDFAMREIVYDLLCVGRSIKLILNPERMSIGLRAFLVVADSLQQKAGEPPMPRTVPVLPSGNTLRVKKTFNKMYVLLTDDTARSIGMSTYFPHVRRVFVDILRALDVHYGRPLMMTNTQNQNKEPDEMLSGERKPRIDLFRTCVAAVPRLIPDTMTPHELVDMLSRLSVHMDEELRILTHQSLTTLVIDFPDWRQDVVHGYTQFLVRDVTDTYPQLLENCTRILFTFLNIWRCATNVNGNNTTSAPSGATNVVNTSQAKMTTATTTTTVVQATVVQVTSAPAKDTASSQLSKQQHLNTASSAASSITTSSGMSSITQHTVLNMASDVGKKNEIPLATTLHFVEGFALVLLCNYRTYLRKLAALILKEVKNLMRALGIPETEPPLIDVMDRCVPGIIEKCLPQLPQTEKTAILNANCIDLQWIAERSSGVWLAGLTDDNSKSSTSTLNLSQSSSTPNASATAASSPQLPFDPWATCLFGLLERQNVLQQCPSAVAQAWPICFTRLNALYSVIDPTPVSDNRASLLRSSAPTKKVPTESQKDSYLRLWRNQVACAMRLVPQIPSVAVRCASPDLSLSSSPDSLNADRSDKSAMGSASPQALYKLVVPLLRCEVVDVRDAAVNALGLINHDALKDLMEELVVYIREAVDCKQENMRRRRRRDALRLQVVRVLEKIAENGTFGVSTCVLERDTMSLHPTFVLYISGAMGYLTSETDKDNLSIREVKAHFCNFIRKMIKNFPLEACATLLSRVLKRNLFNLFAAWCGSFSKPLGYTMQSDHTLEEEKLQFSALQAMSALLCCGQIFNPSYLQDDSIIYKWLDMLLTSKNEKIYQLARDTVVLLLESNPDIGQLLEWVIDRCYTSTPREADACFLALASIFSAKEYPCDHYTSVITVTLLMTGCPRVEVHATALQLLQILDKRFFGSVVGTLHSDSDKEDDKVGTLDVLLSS

Molecular target: trcD^2-1 (amino acid #1-350) (Drosophila) (UniProt Q9NBK5)
Experiment: two-hybrid; Matchmaker GAL4 two hybrid system 3 (Clontech); N-Fry in pGADT7, Trc proteins in pGBKT7; scored as interacting by complementation for growth and induction of beta-galactosidase

binding: binds
Substance: amino terminal fragment of Fry (amino terminal 1637 amino acids) in pGADT7 (from UniProt Q9VT28 1-1637) (domain or fragment)
